Data reported in PubChem BioAssay AID1259415 (National Center for Advancing Translational Sciences (NCATS), 2018).
The campaign covered roughly 410,000 compounds. About 18,000 (4.4%) were called active. This list was built around the results that the source calls inconclusive (neither active nor inactive); the mix of calls is not that of the screen. Rule as the data show it: active = activity change below about -60%; inconclusive = no clear call, values can overlap the other calls; inactive = above about -39%.

assay: qHTS Assay for inhibitors of the human cytomegalovirus (HCMV); settings: HFF cells, HCMV-luciferase reporter, 72 h; at 57.5 µM; hits give low values
Procedure, shortened: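 Two-dose cell screen: HFF monolayers treated with compounds and infected with luciferase-expressing HCMV at 1 PFU/cell, 72 h at 37C, then lysed for luciferase measurement.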
% is scaled to controls: 0 for no effect and ±100 for the full control effect.

| SMILES | activity change, negative = inhibition |
| --- | --- |
| Cc1n[nH]c(C)c1S(=O)(=O)N1CCN(S(=O)(=O)c2ccccc2C#N)CC1 | inactive: 63.3% |
| CN(C)S(=O)(=O)c1ccc(N2CCCC2)c(C(=O)Nc2ccccc2)c1 | active: -67.4% |
| CC(=O)N1CCSc2ccc(S(=O)(=O)NCc3ccccc3)cc21 | inconclusive: -44.7% |
| COc1ccc(N(C(=O)Cn2nnc3ccccc32)C(C(=O)NCc2ccccc2)c2ccc(F)cc2)cc1 (centres undefined) | inconclusive: -40.5% |
| C#CC(=O)N(c1ccc(OC)cc1OC)C(C(=O)NC1CCCC1)c1cccs1 (centres undefined) | active: -99.5% |
| O=C1CNC(=S)N1CCc1ccc(O)c(O)c1 | inconclusive: -41.1% |
| O=C1S/C(=C\c2ccc(Cl)cc2)C(=O)N1CCn1cnnn1 | inconclusive: -43.2% |
| C/C(=N/NC(=O)CNC(=O)c1cccnc1)c1ccc([N+](=O)[O-])cc1 | inconclusive: -49.9% |
| Cc1ccccc1/C=C/C(=O)c1ccc([N+](=O)[O-])o1 | active: -103% |
| CCn1c(SCc2nc3ccccc3[nH]2)nnc1-c1cccs1 | inconclusive: -56.9% |
| Cc1ccc2nc(Cl)c3cc(C(=O)N4CCCCC4)sc3c2c1 | inactive: -3.1% |
| Cc1cc(=O)oc2c(C)c(OC(C)C(=O)Nc3ccc(N4CCC(C)CC4)cc3)ccc12 (centres undefined) | inconclusive: -50% |
| O=C(Nc1ccc(-c2csc(Nc3ccc(Cl)cc3)n2)cc1)c1cccc(C(F)(F)F)c1 | inconclusive: -58.8% |
| COc1c(F)c(F)c(C(=O)Nc2ccc(N3CCN(C(C)=O)CC3)c(Cl)c2)c(F)c1F | active: -83.4% |
| O=C(OCC(=O)N1CCc2ccccc21)c1c2c(nc3ccccc13)CCCCC2 | inconclusive: -41% |
| Cc1cccc(/C=N/NC(=O)CNc2cccc3ccccc23)n1 | inconclusive: -47.2% |
| O=C(Nc1cccc(-n2cnnn2)c1)c1cc(Cl)nc(Cl)c1 | inconclusive: -40.9% |
| C/C(=N\NC(=O)c1cccnc1)c1cc2ccccc2o1 | inconclusive: -57.2% |
| Cc1cc(NC(=O)CCN2C(=O)C3C4CCC(C4)C3C2=O)cc(C)c1Br (centres undefined) | inactive: -33.9% |
| CCOC(=O)Cn1c(O)c(N=NC(=O)CNC(=O)Cc2ccccc2)c2ccccc21 | inconclusive: -46.4% |
| Cc1cc(-c2nn(-c3ccccc3F)cc2CN2CCCC(CO)C2)c(C)s1 (centres undefined) | active: -85.8% |
| Cc1cc(C(=O)COc2ccc(C#N)cc2)c(C)n1-c1ccc2c(c1)OCO2 | active: -65.7% |
| CCc1cccc(NC(=S)Nc2ccc(CN3CCOCC3)cc2)c1 | inconclusive: -40.7% |
| COCCn1c(C)cc(C(=O)COC(=O)c2ccc(S(=O)(=O)N(C)C)cc2)c1C | active: -87.6% |

Structural class: the entries above with two or more sulfur atoms

| SMILES | activity change, negative = inhibition |
| --- | --- |
| Cc1n[nH]c(C)c1S(=O)(=O)N1CCN(S(=O)(=O)c2ccccc2C#N)CC1 | inactive: 63.3% |
| CC(=O)N1CCSc2ccc(S(=O)(=O)NCc3ccccc3)cc21 | inconclusive: -44.7% |
| CCn1c(SCc2nc3ccccc3[nH]2)nnc1-c1cccs1 | inconclusive: -56.9% |
